For four molecules, binding results are on record in article PMC7106964.

By UniProt entry, the sequences of proteins in these tests, tags left out.
UniProt Q92993: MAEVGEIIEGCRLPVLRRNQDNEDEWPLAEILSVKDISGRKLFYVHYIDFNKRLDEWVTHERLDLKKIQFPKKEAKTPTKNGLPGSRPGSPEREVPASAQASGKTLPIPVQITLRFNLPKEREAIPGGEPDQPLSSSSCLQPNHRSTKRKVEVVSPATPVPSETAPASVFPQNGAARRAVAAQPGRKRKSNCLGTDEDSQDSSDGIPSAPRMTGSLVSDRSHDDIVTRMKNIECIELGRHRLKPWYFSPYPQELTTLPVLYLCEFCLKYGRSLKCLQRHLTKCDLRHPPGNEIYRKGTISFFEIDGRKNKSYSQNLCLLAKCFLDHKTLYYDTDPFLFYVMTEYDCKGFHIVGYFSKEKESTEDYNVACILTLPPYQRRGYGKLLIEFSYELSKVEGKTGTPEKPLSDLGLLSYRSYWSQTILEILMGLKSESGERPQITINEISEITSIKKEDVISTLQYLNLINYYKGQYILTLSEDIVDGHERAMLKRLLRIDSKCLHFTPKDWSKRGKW

The target in assay [1] is Tip60 (construct not named for the co-IP) (human) (UniProt Q92993). Put plainly: co-IP; HEK-293T whole cell lysates in RIPA buffer, antibody 3 h at 4°C, then protein A/G Sepharose 3 h, immunoblot; cells with or without Eto or CPT; in Figure 6D with or without overexpressed RNF8. (Immunoblotting shows a protein as a band on a membrane.)
The target of assay [2] is p53 (construct not named for the co-IP) (human) (UniProt P04637). The assay is described as above.
In assay [3] the target is Flag‐Tip60 (human) (UniProt Q92993). Nature of the assay: proximity ligation; U2OS cells transfected 48 h with the indicated plasmids, fixed, Duolink in situ PLA with probes against HA and Flag; in Figure 6E with overexpressed RNF8.
In assay [4] the target is GST‐p53 (human) (UniProt P04637). Put plainly: pull-down; beads coated with GST or GST-p53 incubated 3 h with RIPA lysate of HEK-293T cells expressing GFP-RNF8; anti-GFP immunoblot; only the target purified.
For assay [5], the target named is Tip60 (endogenously expressed) (human (endogenous in U2OS)) (UniProt Q92993). Nature of the assay: proximity ligation; in situ PLA of endogenously expressed proteins (Figure S8A).

No constants are given. Whether binding was seen depends on the method and setting. Binding seen in cells or lysates may run through a third protein. Some entries that bind do so weakly or less than the wild type. For some assays here: Tags and fused reporters may be left off the sequences shown.

B1: RNF8 (construct not named for the experiment) (protein, UniProt O76064 1-485)
chain: MGEPGFFVTGDRAGGRSWCLRRVGMSAGWLLLEDGCEVTVGRGFGVTYQLVSKICPLMISRNHCVLKQNPEGQWTIMDNKSLNGVWLNRARLEPLRVYSIHQGDYIQLGVPLENKENAEYEYEVTEEDWETIYPCLSPKNDQMIEKNKELRTKRKFSLDELAGPGAEGPSNLKSKINKVSCESGQPVKSQGKGEVASTPSDNLDPKLTALEPSKTTGAPIYPGFPKVTEVHHEQKASNSSASQRSLQMFKVTMSRILRLKIQMQEKHEAVMNVKKQTQKGNSKKVVQMEQELQDLQSQLCAEQAQQQARVEQLEKTFQEEEQHLQGLEIAQGEKDLKQQLAQALQEHWALMEELNRSKKDFEAIIQAKNKELEQTKEEKEKMQAQKEEVLSHMNDVLENELQCIICSEYFIEAVTLNCAHSFCSYCINEWMKRKIECPICRKDIKSKTYSLVLDNCINKMVNNLSSEVKERRIVLIRERKAKRLF
For B1, the binding result in assay [1] and in assay [2] was “binds” throughout.

B2: HA‐RNF8 (protein, UniProt O76064 1-485)
chain: B1 chain
As for B2, in assay [3], the binding entry is listed as “binds”.

B3: GFP‐tagged RNF8 (protein, UniProt O76064 1-485)
chain: B1 chain
On to B3, for which the binding entry in assay [4] is recorded as “binds”.

B4: RNF8 (endogenously expressed) (protein, UniProt O76064 1-485)
chain: B1 chain
Regarding B4, in assay [5], the binding entry was “binds”.
